Test results taken from patent US7211119B2, “Coupling components” (Henkel Kommanditgesellschaft auf Aktien (Henkel KGaA), priority 2002, dated 2007).

Assay: Coloration of hair tresses with coloring cream of coupler plus developer component and hydrogen peroxide preparation
Details: 1/400 mol each, pH 9.5, 30 minutes at room temperature
Experimental: To prepare the coloring cream, 50 g of a cream base are weighed into a 250 ml beaker and melted at 80° C. The cream base used had the following composition:
In each case, 1/400 mol of the developer or coupler component was suspended or dissolved with heating separately in distilled water. Ammonia (<1 ml; 25% strength ammonia solution) was then added until the pH was between 9 and 10.
The dissolved dye precursors were incorporated one after the other into the hot cream. Then, distilled water was used to make up to 97 g and ammonia was used to establish a pH of 9.5. After making up to 100 g with distilled water, the mixture was stirred under cold conditions (<30° C.), whereupon a homogeneous cream was formed.
For the colorations (unless noted otherwise) in each case 25 g of coloring cream were mixed with 25 g of the following oxidizing agent preparation.
A hair tress (80% gray; 330 mg to 370 mg in weight) was placed into each of the mixtures obtained in this way. The mixtures and the hair tresses were then each placed onto an watchglass and the hair tresses were thoroughly embedded into the coloring creams. After a contact time of 30 minutes (±1 minute) at room temperature, the hair tresses were removed and washed with an aqueous Texapon® EVR solution^9 until the color excess was removed. The hair tresses were dried under air and their color shade was determined under a daylight lamp (color testing instrument HE240A) and noted (Taschenlexikon der Farben [Pocket lexicon of colors], A. Kornerup & J. H. Wanscher, 3rd unrevised edition 1981, MUSTER-SCHMIDT Verlag; Zurich, Göttingen). ^9 Lauryl ether sulfate sodium salt with special additives (about 34 to 37% active substance content; INCI name: Sodium Lauryl Sulfate, Sodium Laureth Sulfate, Lauramide MIPA, Cocamide MEA, Glycol Stearate, Laureth-10) (Cognis)

[1] = developer component 2,4,5,6-Tetraaminopyrimidine sulfate
[2] = developer component 2-(2,5-Diaminophenyl)ethanol sulfate
[3] = developer component p-Tolylenediamine sulfate

SMILES: COc1ccc(NCCO)cc1NCCO [2,4-di(β-hydroxyethylamino-1-methoxybenzene, reference compound]
- Coloration [1]: nordic blue
- Coloration [2]: marine blue
- Coloration [3]: black-blue

SMILES: COc1c(C)cc(NCCO)cc1NCCO [2,4-Bis[(2-hydroxyethyl)amino]-6-methylanisole]
- Coloration [1]: pepper red
- Coloration [2]: gray-ruby
- Coloration (developer component 4,5-Diamino-1-(2-hydroxyethyl)pyrazole sulfate): dark violet
- Coloration (developer component 4-Amino-2-[(5-amino-2-hydroxyphenyl)methyl]phenol dihydrochloride): brown-violet
- Coloration (developer component 4-Amino-3-methylphenol): brown-red
- Coloration (developer component p-Aminophenol): cockscomb red
- Coloration [3]: bordeaux red

SMILES: OCCNc1ccc(NCCO)c2c(O)c(O)oc12 [4,7-bis(2-hydroxyethylamino)-2,3-dihydroxybenzofuran, reference compound]
- Coloration [1]: cinnamon brown
- Coloration [2]: gray-brown
- Coloration [3]: gray-brown
